The results in this text go back to ChEMBL document CHEMBL5137126, “Alliacane-Type Secondary Metabolites from Submerged Cultures of the Basidiomycete Clitocybe nebularis” (J Nat Prod, 2022).

The MIC is the least concentration at which growth counts as inhibited.

The subject of the assay is Candida albicans. Description: Antifungal activity against Candida albicans DSM1665 assessed as inhibition of fungal growth incubated overnight by serial dilution method. Format: functional.

As to NYSTATIN, the minimum inhibitory concentration (MIC) amounted to 9.2 µg/mL.
